At least one structure is not confirmed: it was looked up by name or label, or the drawing left a doubt.
Tests used:
Type in all cases: in vivo, mouse
[1] = tested on: rd10 mice; test: Rod photoreceptor preservation in rd10 mice (photoreceptor rows in ONL, immunofluorescence); conditions: romidepsin
Description: All inhibitors were diluted in 0.9% bacteriostatic sodium chloride (saline).
Retinas were fixed in 4% paraformaldehyde overnight at 4° C., washed in PBS, incubated in 5% sucrose/PBS for 30 min and then cryopreserved in 20% sucrose/PBS overnight at 4° C. Retinas were embedded in 2:1 mix of 20% sucrose and OCT (Sakura Finetek Torrance, CA) and stored at −80° C. Blocks with tissue samples were sectioned to 7-10 μm on a Cryostat Microtome HM550 (Thermo Fisher Scientific) and stored at −20° C. Antigen retrieval was performed by incubating the slides in 10 mM sodium citrate pH 6 for 30 min at 80° C. Double labeling immunohistochemistry was performed using fluorescent Alexa Fluor-conjugated secondary antibodies diluted 1:800 (Invitrogen, Carlsbad, California). Primary antibodies were diluted as follow: anti-H3K4me2 1:600, anti-H3K9me2 1:600, anti-RHO 1:50, anti-OPN1SW 1:400, anti-GFAP 1:1000, anti-IBA1 1:450 (AifI gene). […] The acquisition parameters were maintained constant for each set of experiments. Fluorescence intensity was assessed using ImageJ software (Bethesda, MD).

[2] = tested on: GFAP, IBA1; test: Immunofluorescence labeling of GFAP and IBA1 in retina sections; conditions: rd10 vs rd10+romidepsin
Description: Fluorescence intensity was assessed using ImageJ software (Bethesda, MD).

[3] = tested on: rd10 mice retina; test: RT-PCR retinal gene expression, rd10 mice
Description: Whole retinas were isolated from animals by removing the sclera and most of the retinal pigmented epithelium (RPE) layer under PBS. The right eye retinas from each animal were taken for RNA extraction, cDNA preparation and RT-PCR. Immediately after isolation, tissue was flash frozen in liquid nitrogen and stored at −80° C. Left eye retinas from each animal were subjected to fixation, cryopreservation, sectioning, and immunofluorescence staining. RNA extraction and purification followed the manufacturer's protocol from RNeasy Mini Kit and RNA shredder (Qiagen). […] Primers purchased from Integrated DNA Technologies (IDT). For quantitative real-time PCR we used 2× iQ-SYBR Green PCR supermix from Bio-Rad. Samples in triplicate were run on an iQ5 Multicolor Real Time PCR Detection System (Bio-Rad). The relative expression level for each gene was calculated by the 2-ΔΔCt method and normalized to GAPDH.

[4] = treated PN9 till PN24 vs saline

## C/C=C1\NC(=O)[C@H]2CSSCC/C=C/[C@H](CC(=O)N[C@H](C(C)C)C(=O)N2)OC(=O)[C@H](C(C)C)NC1=O [romidepsin]
[1]
  overall efficacy at preventing rod degeneration: moderately effective at preventing rod degeneration
[2]
  immunofluorescence labeling for GFAP and IBA1: did not demonstrate significant differences
[3]; romidepsin PN9 till PN24
  expression level of Gfap: did not change
[3]; romidepsin PN9 till PN24 vs saline
  expression of inflammatory markers Ptprc, C1qa, C1qb, Cst7, H2-Aa, Cd74, Cx3cr1, Aif1: down regulated
[3]; treated PN9 till PN24, except Rgr and Hes5
  expression of most other retina cell type markers: appeared to be decreased
[3]; [4]
  expression of Capn2 and Aifm1: somewhat decreased
  expression of apoptotic specific genes Bcl2, Apaf1, and Casp9: slightly decreased
  expression of cone genes Thrb or Gnat2: down-regulated
